The values below come from paper doi:10.1101/2024.05.22.595265.

This assay deals with Fbxw7-Skp1 complex (UniProt Q969H0). The experiment in a line: SEC. On the technique in general: SEC sorts molecules by how far they enter the pores of the column.

Results are given in words; binding and its absence hold for the method and conditions named.

In the case of “N-myc transactivation domain, N-myc 1-137 (from UniProt P04198 1-137) (domain or fragment)”, the binding entry is given as “no binding”.
